Data as given in publication PMC11873932.
No constants are given. Whether binding was seen depends on the method and setting. Some results given as binding are weak or reduced against the parent protein; the word gives no strength. Sequences can lack the tags named with a protein.

Sequences of proteins named here, by UniProt entry; tags and fusion partners are left off.
UniProt P11801: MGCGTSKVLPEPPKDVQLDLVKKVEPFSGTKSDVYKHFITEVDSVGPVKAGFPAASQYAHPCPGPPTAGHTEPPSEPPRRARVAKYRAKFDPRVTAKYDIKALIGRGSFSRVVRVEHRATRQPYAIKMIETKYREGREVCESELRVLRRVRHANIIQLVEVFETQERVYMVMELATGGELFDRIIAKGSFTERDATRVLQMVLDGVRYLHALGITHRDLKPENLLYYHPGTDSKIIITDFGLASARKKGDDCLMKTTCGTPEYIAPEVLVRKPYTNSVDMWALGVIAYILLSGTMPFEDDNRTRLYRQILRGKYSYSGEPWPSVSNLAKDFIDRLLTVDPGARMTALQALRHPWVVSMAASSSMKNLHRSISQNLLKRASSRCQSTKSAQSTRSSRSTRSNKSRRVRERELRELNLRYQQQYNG

Assays:
[1] = molecular target: Protein Serine Kinase H1 (PSKH1), recombinant full-length, wild type (human) (UniProt P11801); experiment: cross-linking; SDA (NHS-Diazirine, 1 mg/mL) cross-linking mass spectrometry; recombinant full-length PSKH1 with Calmodulin, RCN3 or UNC119B at 1:2 molar ratio; 30 min in the dark at room temperature, UV 365 nm; bands cut from reducing SDS-PAGE, trypsin; both purified
[2] = molecular target: Protein Serine Kinase H1 (PSKH1), recombinant full-length, wild type (human) (UniProt P11801); experiment: far-Western, overlay or dot blot; Far-Western with recombinant PSKH1 and His6-CaM or His6-RCN3 in the presence of EGTA (10 mM), probed with anti-His6 horseradish peroxidase antibody; both purified
[3] = molecular target: Protein Serine Kinase H1 (PSKH1), recombinant full-length, wild type (human) (UniProt P11801); experiment: far-Western, overlay or dot blot; Far-Western with recombinant PSKH1 and His6-CaM or His6-RCN3, Ca2+ 500 uM, probed with anti-His6 horseradish peroxidase antibody; both purified

binding [1]: binds
binding [2]: no binding (condition: with 10 mM EGTA)
binding [3]: binds
B1: Reticulocalbin-3 (RCN3), recombinant (His6-RCN3) (protein, UniProt Q96D15 21-328)
chain: KPSPDAGPHGQGRVHQAAPLSDAPHDDAHGNFQYDHEAFLGREVAKEFDQLTPEESQARLGRIVDRMDRAGDGDGWVSLAELRAWIAHTQQRHIRDSVSAAWDTYDTDRDGRVGWEELRNATYGHYAPGEEFHDVEDAETYKKMLARDERRFRVADQDGDSMATREELTAFLHPEEFPHMRDIVIAETLEDLDRNKDGYVQVEEYIADLYSAEPGEEEPAWVQTERQQFRDFRDLNKDGHLDGSEVGHWVLPPAQDQPLVEANHLLHESDTDKDGRLSKAEILGNWNMFVGSQATNYGEDLTRHHDEL
